Measured values: patent publication US6555322B1, “α2-macroglobulin receptor as a receptor for CTGF” (FibroGen, Inc., priority 1999, dated 2003)

Test system: CTGF receptor on BMS2 cells
Experiment: Equilibrium binding of radioiodinated rhCTGF to BMS2 cells
Parameters: species or system murine
Details: FIG. 2

B1: connective tissue growth factor (protein)
chain: QNCSGPCRCPDEPAPRCPAGVSLVLDGCGCCRVCAKQLGELCTERDPCDPHKGLFCHFGSPANRKIGVCTAKDGAPCIFGGTVYRSGESFQSSCKYQCTCLDGAVGCMPLCSMDVRLPSPDCPFPRRVKLPGKCCEEWVCDEPKDQTVVGPALAAYRLEDTFGPDPTMIRANCLVQTTEWSACSKTCGMGISTRVTNDNASCRLEKQSRLCMVRPCEADLEENIKKGKKCIRTPKISKPIKFELSGCTSMKTYRAKFCGVCTDGRCCTPHRTTTLPVEFKCPDGEVMKKNMMFIKTCACHYNCPGDNDIFESLYYRKMYGDMA
notes: recombinant human CTGF produced in baculovirus-infected Hi 5 insect cells, also used radioiodinated
In the case of B1, the “number of high affinity binding sites” value is reported as “less than 50,000 sites per cell” and the “number of low affinity binding sites” value is reported as “greater than 50,000 sites per cell”.
